Results reported in paper PMC8974194.
Results are given in words; binding and its absence hold for the method and conditions named. In cells and extracts the contact can be indirect. Some results given as binding are weak or reduced against the parent protein; the word gives no strength.

Chains of the proteins cited; added tags and fusions are not shown.
UniProt P35222: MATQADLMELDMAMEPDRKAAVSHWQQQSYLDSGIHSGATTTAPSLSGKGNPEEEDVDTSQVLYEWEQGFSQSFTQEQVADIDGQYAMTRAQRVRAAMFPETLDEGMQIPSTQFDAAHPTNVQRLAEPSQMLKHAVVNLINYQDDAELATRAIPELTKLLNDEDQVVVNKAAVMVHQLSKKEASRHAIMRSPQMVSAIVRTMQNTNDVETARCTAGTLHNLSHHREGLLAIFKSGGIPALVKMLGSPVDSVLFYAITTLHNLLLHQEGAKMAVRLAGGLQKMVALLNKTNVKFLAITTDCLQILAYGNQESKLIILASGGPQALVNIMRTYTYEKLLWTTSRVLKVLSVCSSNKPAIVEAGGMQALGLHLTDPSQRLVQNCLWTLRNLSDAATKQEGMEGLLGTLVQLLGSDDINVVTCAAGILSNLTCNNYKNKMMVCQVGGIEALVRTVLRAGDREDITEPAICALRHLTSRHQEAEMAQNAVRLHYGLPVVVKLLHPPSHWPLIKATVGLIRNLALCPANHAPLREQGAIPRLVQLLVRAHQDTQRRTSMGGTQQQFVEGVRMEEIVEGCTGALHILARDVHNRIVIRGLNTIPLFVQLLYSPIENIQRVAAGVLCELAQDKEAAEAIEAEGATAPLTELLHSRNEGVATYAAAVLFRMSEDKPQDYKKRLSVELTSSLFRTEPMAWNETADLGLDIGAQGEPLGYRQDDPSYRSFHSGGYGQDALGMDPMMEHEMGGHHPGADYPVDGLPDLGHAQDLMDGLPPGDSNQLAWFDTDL
UniProt Q15717: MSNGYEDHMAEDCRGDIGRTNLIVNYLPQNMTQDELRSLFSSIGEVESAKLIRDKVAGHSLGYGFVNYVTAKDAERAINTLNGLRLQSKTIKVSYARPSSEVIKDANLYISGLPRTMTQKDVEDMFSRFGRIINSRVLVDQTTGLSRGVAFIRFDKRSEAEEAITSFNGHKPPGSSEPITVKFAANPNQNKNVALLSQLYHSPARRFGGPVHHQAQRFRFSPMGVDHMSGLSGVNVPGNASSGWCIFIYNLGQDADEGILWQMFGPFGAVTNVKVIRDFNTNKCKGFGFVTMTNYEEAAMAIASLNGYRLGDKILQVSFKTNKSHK

Target: β-catenin (CTNNB1) (human (endogenous in colorectal cancer cells, SW480 or HCT116)) (UniProt P35222)
Experiment: co-IP; 5 x 10^6 cells lysed in NP40 buffer with 1x cocktail; 500 ug protein with 5 ug RIgG or antibody overnight at 4°C, 50 ul agarose beads 3 h at 4°C; Western blot

HuR (ELAVL1) (from UniProt Q15717 1-326)
binding: binds
